These are yes or no findings as the source states them, for the method shown. In cells and extracts the contact can be indirect. Some results given as binding are weak or reduced against the parent protein; the word gives no strength. Blank lines part the entries; values can stand above or below the substance they belong to.
What was measured:
[1] = biological target: E2F1 N-terminal fragment aa1-200 (UniProt Q01094); test: co-IP; truncated and deletion mutants of POH1 and E2F1 (Supplementary Fig. 2a,b); cells and precipitating antibody not shown
E2F1 portion aa201-437 = E2F1 portion aa201-437 (UniProt Q01094); test: as above
[2] = biological target: His-tagged E2F1, full length (E2F1-His) (UniProt Q01094); test: co-IP; HEK293T cells co-transfected with E2F1-His and POH1-Flag; anti-His antibody or IgG, Protein G-agarose, 4 °C; immunoblot
[3] = biological target: His-tagged E2F1, full length (E2F1-His) (UniProt Q01094); test: co-IP; truncated and deletion mutants of POH1 and E2F1 (Supplementary Fig. 2a,b); cells and precipitating antibody not shown
[4] = biological target: E2F1, endogenous (Fig. 1i) (UniProt Q01094); test: co-IP; endogenous proteins; anti-E2F1 antibody or IgG, Protein G-agarose, 4 °C; immunoblot

Chains of the proteins cited; added tags and fusions are not shown. Lines headed by an entry give the natural chain unless they say otherwise; changes in a name come on top. A line that says so, or that is headed by a name, gives the form on record, which may keep a tag or linker. Residues count along the entry.
UniProt Q01094: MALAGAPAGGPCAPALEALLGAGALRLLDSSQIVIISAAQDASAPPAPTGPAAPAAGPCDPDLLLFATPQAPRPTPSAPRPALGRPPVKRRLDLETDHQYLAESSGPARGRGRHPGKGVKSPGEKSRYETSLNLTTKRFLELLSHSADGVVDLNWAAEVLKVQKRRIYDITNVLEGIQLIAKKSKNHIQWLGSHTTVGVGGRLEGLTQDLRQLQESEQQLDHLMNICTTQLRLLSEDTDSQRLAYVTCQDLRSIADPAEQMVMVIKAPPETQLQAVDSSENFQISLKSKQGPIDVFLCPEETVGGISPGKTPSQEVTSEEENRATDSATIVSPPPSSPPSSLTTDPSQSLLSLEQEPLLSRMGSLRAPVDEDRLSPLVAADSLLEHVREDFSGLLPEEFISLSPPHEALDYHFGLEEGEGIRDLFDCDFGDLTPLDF
E2F1 N-terminal fragment aa1-200: residues 1-200 of Q01094
E2F1 portion aa201-437: residues 201-437 of Q01094
UniProt O00487: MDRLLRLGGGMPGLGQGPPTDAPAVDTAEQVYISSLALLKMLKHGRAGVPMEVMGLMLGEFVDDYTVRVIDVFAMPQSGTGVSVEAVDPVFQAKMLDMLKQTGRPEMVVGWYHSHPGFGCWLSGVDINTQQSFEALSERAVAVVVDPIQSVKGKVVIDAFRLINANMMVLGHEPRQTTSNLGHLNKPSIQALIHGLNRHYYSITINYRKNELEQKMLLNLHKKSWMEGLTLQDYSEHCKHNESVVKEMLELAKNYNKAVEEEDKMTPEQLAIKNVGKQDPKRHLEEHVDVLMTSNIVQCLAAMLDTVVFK
POH1 mutant with deletion of JAMM motif (deletion of 113-126aa) (O00487, form named): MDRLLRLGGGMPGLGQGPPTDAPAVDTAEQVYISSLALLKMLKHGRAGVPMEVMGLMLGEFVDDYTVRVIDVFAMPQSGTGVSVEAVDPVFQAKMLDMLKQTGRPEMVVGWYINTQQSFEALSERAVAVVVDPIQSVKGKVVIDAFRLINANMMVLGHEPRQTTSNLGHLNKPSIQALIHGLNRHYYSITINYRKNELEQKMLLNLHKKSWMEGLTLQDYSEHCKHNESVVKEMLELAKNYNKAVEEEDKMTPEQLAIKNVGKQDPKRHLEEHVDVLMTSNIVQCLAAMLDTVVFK

binding [1]: binds weakly
binding (E2F1 portion aa201-437): binds
binding [2]: binds
Substance: Flag-tagged POH1 (POH1-Flag) in HEK293T cells (from UniProt O00487 1-310) (enzyme)

binding [3]: binds
Substance: POH1 mutant with deletion of JAMM motif (deletion of 113-126aa) (from UniProt O00487 1-310) (enzyme)

binding [4]: binds
Substance: POH1, endogenous (Fig. 1i) (from UniProt O00487 1-310) (enzyme)

From article PMC4846323
